3 molecules from patent publication US20180193413A1 (UNIVERSITY OF BRITISH COLUMBIA, published 2018) can be followed below.

These are yes or no findings as the source states them, for the method shown. A result given as binding can be weak or reduced; the word gives no strength.

Assay [1] deals with mammalian alpha-amylase. The assay is described as follows: alpha-amylase inhibition assay of truncated peptides.
In assay [2] the target is mammalian alpha-amylase. Put plainly: alpha-amylase inhibition assay of uncleaved fusion peptides.

B1: Ac-…-NH2 (peptide)
peptide: YIYHGVSGI
modifications: N-terminal acetyl (Ac), C-terminal amide (NH2)
As for B1, the binding result in the assay with mammalian alpha-amylase [1] is on record as “binds”.

B2: Ac-…-NH2 (peptide)
peptide: CYIYHGVSGIC
modifications: N-terminal acetyl (Ac), C-terminal amide (NH2)
As for B2, the binding result with mammalian alpha-amylase [1] is given as “binds”.

B3: SEQ ID NO 17 (protein)
chain: EAEAYVEFDYKDDDDKGHHHHHHGGSDSEVNQEAKPEVKPEVKPETHINLKVSDGSSEIFFKIKKTTPLRRLMEAFAKRQGKEMDSLTFLYDGIEIQADQTPEDLDMEDNDIIEAHREQIGGESGNSCYIYHGVSGICKASCAEDEKAMAGMGVCEGHLCCYKTPW
For B3, the binding entry with mammalian alpha-amylase [2] is listed as “binds”.
